Experimental data: PubChem BioAssay AID504784 (Drosophila RNAi Screening Center, 2011)
Assay: 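Fly genes whose silencing alters how much lipid cells keep in droplets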 (primary screen). Cells: Drosophila Kc167 embryonic cells. Knock-down reagent: long dsRNA against Drosophila genes, about 250 ng dsRNA per well. Time to read-out: 4 days. Conditions: cells fed 400 µM oleic acid bound to BSA. Read-out: 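Cells imaged and segmented; ratio of lipid droplet area to nuclear area, log-transformed, then normalised as a B-score over the screen; higher means more stored lipid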. Reading the numbers: droplet/nuclear area B-score: higher = more stored lipid (overstorage).
In all, the deposit lists about 17,000 reagents; shown is an unselected part of those that have a named target and a result. 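Each column is one replicate's B-score; the combined score over replicates was not deposited, so single values may mislead.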 Names joined by + are all predicted targets of the reagent. Further read-outs or replicates are left out here.

droplet/nuclear area B-score, replicate 1, by target and reagent
CG4709 (GeneID 34324): DRSC02772 -1.83
CG6271 (GeneID 43252): DRSC16006 -1.98
CG16952 (GeneID 32546): DRSC19759 -1.35
CG15098 (GeneID 37174): DRSC06527 0.253
rig (GeneID 37335): DRSC06053 -0.451; DRSC06400 0.247
Nubpl (GeneID 35452): DRSC03725 0.0594
CG42686 (retired record) (GeneID 42674): DRSC15247 1.37; DRSC15248 0.562; DRSC22995 -0.805
CG9967 (GeneID 33414): DRSC00742 0.226
CG12551 (retired record) (GeneID 35518): DRSC04857 -2.57; DRSC04864 -2.8
CG9393 (GeneID 41152): DRSC16486 0.617
CG4607 (GeneID 31653): DRSC18375 -1.07
eag (GeneID 32428): DRSC19067 0.378; DRSC20328 -0.889
Vps11 (GeneID 317987): DRSC11909 1.51; DRSC21579 -3.18
CG33251 (retired record) + CG9915: DRSC20217 -0.827
Gr32a (GeneID 34545): DRSC02400 -6.18
CG6431 (GeneID 34476): DRSC02956 -0.935
elfless (GeneID 35076): DRSC02451 -1.37
bowl (GeneID 33602): DRSC00805 3.67
Pdf (GeneID 43193): DRSC16786 0.0948
CG12236 (GeneID 31523): DRSC17830 2.69; DRSC17831 -0.734
Akh (GeneID 38495): DRSC08138 -0.754
CG7142 (GeneID 42194): DRSC16204 0.644
Daao1 (GeneID 36128): DRSC06131 -0.378
CG14963 (GeneID 38383): DRSC08422 1.95
PICK1 (GeneID 34677): DRSC02936 -0.272
CG6244 (GeneID 2768962): DRSC10609 2.93
CG12911 (GeneID 36081): DRSC06226 -0.487
schuy (GeneID 40184): DRSC10284 1.57
Syn2 (GeneID 36848): DRSC06902 -0.355
CG2694 (GeneID 31260): DRSC18470 -2.13
Pits (GeneID 32205): DRSC19385 0.873; DRSC19812 -0.311
mRpL51 (GeneID 34186): DRSC02200 3.81
VhaM9.7-c (GeneID 38503): DRSC08204 0.777
CG1227 (GeneID 40872): DRSC12534 -0.000816
CG7369 (GeneID 2768961): DRSC11822 -0.594
Tsp42Eg (GeneID 35616): DRSC06112 0.158
Scgdelta (GeneID 31129): DRSC18544 0.0468
UGP (GeneID 39065): DRSC10411 -0.96
lt (GeneID 3355130): DRSC03759 0.505
BicC (GeneID 34946): DRSC02005 -1.12
Desat2 (GeneID 41536): DRSC15919 -0.416
CG14073 (GeneID 40046): DRSC10078 0.654
cib (GeneID 31359): DRSC18660 -1.63
CG14282 (GeneID 42301): DRSC14763 0.537
Brd8 (GeneID 43460): DRSC14866 -0.492
dpr5 (GeneID 41381): DRSC15766 0.105
Arp2 (GeneID 32623): DRSC19332 -1.83
CAH1 + Adat1: DRSC02009 -2.41
Galphaf (GeneID 39861): DRSC11171 -0.636
Cht4 (GeneID 49815): DRSC04603 -1.48
regucalcin (GeneID 32165): DRSC20366 2.25
nAChRbeta1 (GeneID 38545): DRSC08097 0.506; DRSC08728 0.39
Acadvl (GeneID 37217): DRSC07022 -0.0144
COX6CL (GeneID 318868): DRSC00895 -0.376
M7BP (GeneID 35698): DRSC05932 1.55
CG30496 (GeneID 246652): DRSC06805 0.683
CG18190 (GeneID 37179): DRSC06714 -0.605
Cyp303a1 (GeneID 49165): DRSC03300 -0.682
rk (GeneID 34819): DRSC03602 0.589

No new results follow: entries from further up.
droplet/nuclear area B-score, replicate 1, by target and reagent
Nubpl (GeneID 35452): DRSC03725 0.0594
CG42686 (retired record) (GeneID 42674): DRSC15247 1.37; DRSC15248 0.562; DRSC22995 -0.805
CG9967 (GeneID 33414): DRSC00742 0.226
CG12551 (retired record) (GeneID 35518): DRSC04857 -2.57; DRSC04864 -2.8
CG9393 (GeneID 41152): DRSC16486 0.617
CG4607 (GeneID 31653): DRSC18375 -1.07
eag (GeneID 32428): DRSC19067 0.378; DRSC20328 -0.889
Vps11 (GeneID 317987): DRSC11909 1.51; DRSC21579 -3.18
CG33251 (retired record) + CG9915: DRSC20217 -0.827
Gr32a (GeneID 34545): DRSC02400 -6.18
CG6431 (GeneID 34476): DRSC02956 -0.935
elfless (GeneID 35076): DRSC02451 -1.37
bowl (GeneID 33602): DRSC00805 3.67

The listing continues.
droplet/nuclear area B-score, replicate 1, by target and reagent
CG33060 (GeneID 39807): DRSC09939 0.481
eloF (GeneID 41211): DRSC15162 0.984
CG16985 (GeneID 38323): DRSC08501 0.954
CG30484 (GeneID 36534): DRSC05457 -2.51
CG14160 (GeneID 39177): DRSC10161 1.2
galla-2 (GeneID 39221): DRSC10936 0.0643; DRSC21949 1.82
CG34283 (GeneID 5740817): DRSC13313 -0.64
CG15199 (GeneID 32051): DRSC19646 -3.2
CG9297 (GeneID 41688): DRSC16469 6.92
rols (GeneID 39368): DRSC09873 -1.36; DRSC10254 -0.0184; DRSC10536 0.161
CG42450 (GeneID 32874): DRSC20022 -1.99; DRSC22751 -1.15
bap (GeneID 42537): DRSC16908 -0.619
CG8420 (GeneID 41097): DRSC16418 0.547
CG4945 (GeneID 36850): DRSC06904 0.635
Cdk12 (GeneID 40385): DRSC11836 2; DRSC23323 1.95
CG13300 (GeneID 38730): DRSC09974 2.34
Rca1 (GeneID 33959): DRSC03407 -0.462
CG15047 (GeneID 32845): DRSC19623 0.0382; DRSC21443 0.437
pygo (GeneID 43718): DRSC14322 -0.0212
SCCRO (GeneID 39685): DRSC10844 3.92
CG14569 (GeneID 40417): DRSC11730 -0.29
CG5535 (GeneID 39990): DRSC10514 0.926
CG5254 (GeneID 31020): DRSC18611 -0.005
CG31493 (GeneID 318765): DRSC12583 0.42
wol (GeneID 34134): DRSC03077 -0.245
Treh (GeneID 45368): DRSC04548 -0.563
CG31347 (GeneID 318693): DRSC21582 0.749
TMEM216 (GeneID 41035): DRSC16378 1.53
Nt5b (GeneID 32822): DRSC19976 3.5; DRSC19977 -0.809; DRSC19978 0.806; DRSC22588 -2.3
